The record followed here is PubChem BioAssay AID1347423 (Functional Genomics Laboratory (NCATS/FGL), 2020).

Out of some 52,000 sequences screened, about 210 (0.4%) were called active.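 Rule for the calls: active = gene whose silencing raises cell survival under the drug, median off-target-corrected z-score across its silencing RNAs 2 or more; inactive = the rest.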 The list shows a part of the results.

This assay can be described thus: Resistance to Poly (ADP-Ribose) Polymerase inhibitor: Gene Identification via Genome-wide siRNA Screen. Particulars: mouse BRCA2 R2336H ES cells, olaparib, CellTiter-Glo viability; active compounds read high. A digest of the protocol: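 Genome-wide siRNA screen (3 siRNAs/gene, 20 nM) in mouse ES cells carrying hypomorphic BRCA2 R2336H; olaparib 500 nM added 48 h post-transfection, CellTiter-Glo viability 72 h later. Normalized to plate-median negative control; MAD z-scores, gene median, seed-adjusted.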
On the technique in general: In ATP-based viability assays light output follows the ATP content of the culture.
As to GGGCAGUCCGUUUCUUAACTT against Kptn, the z-score was inactive: 0.972. For GGUAAAAGCUACCAUUCAGTT against Ap2a2 the value was inactive: 0.972.

With GGAACUGAUGAUCCUCAUGTT against Ube2c, the z-score is inactive: -2.58. For CCAUUGCAUUACCGGUACCTT against Kcna6 the value was inactive: -0.83. For CCACUUGUUAGGUUGCUGCTT against Neurog1 the value was inactive: -1.62. For CCCAAGGACUAUGAAGUUGTT against Col1a2 the value was inactive: -1.05; for GGUAUUAUGAGACAGGAAGTT against Pax5, inactive: -2.89.

GGGCAUUUCCCAAAACAUATT against Elovl2: the z-score is inactive: 0.546. With CGAGAAUUCCUUGCUCUAATT against Mgat4a, the z-score was inactive: -0.714. For GGAGGUGUCAGAACACUGUTT against Csf1 the value was inactive: -0.569; for GGGUUGGAAAUAAAUAACGTT against Commd9, inactive: -0.38.

Regarding CCAAGAUUUAUCAACUCAGTT against Aqp1, the z-score was inactive: -0.0269.

In the case of CCUCAGAGUGAUAACUAAATT against Ctdsp1, the z-score was inactive: -0.169. For “GGACAAGAUAUCCAAGUGGTT against B930096L08Rik” the value was inactive: -1.09; for “GGAGAACCUGUGUAAGAUUTT against 1700051E09Rik”, inactive: 1.97; for GGAAACUAGAUAGGACAAATT against Podn, inactive: -0.848.

For GGUUCUCUGUAGUUUAAAATT against Selp, the z-score is inactive: 1.94.

Take GGACAAGGCAACACAUACCTT against Csnk1a1: the z-score was inactive: -2.97. Consider GGAGUUUCUGGAAUGCAGGTT against Sec22l3, for which the z-score was inactive: -0.484. For “GGAUCUGAAGUACAAGAAUTT against 2810441K11Rik” the value was inactive: 4.33. For GAUGGUGUCUAUCGAGAGCTT against Oxct2a the value was inactive: 0.659; for GGUUUACCAGGAAAAUUGATT against Txnrd3, inactive: -0.846. For GGAUUUUCUGAAGCAAUGCTT against Thedc1 the value was inactive: -0.196; for GCUUACCUAUUAGCAGCUUTT against Apg16l, inactive: -0.829; for GCAGUCGACAAAGUAUUUCTT against Msx3, inactive: -0.261. Turning to CCUCUCACGCUACAGCUGUTT against Nfatc1, the z-score was inactive: 1.26. On to GCUGCCUGAGUCCAGUCUUTT against Ear14, for which the z-score is inactive: -1.66. For GGAUCACAUGAAAGGAUUATT against Dclre1c the value was inactive: 2.75. For GCUACUCAGCUGCUUAAGCTT against Rpl7a the value was inactive: -3.06.
